The test system of this data set is guinea pigs. Put plainly: Q-T interval, guinea pigs. Format: in vivo. Particulars: 10 mg/kg IP.

Consider `CCCCc1oc2ccccc2c1C(=O)c1cc(I)c(OCCN(CC)CC)c(I)c1` [amiodaron, reference compound], for which the QT prolongation entry was “expected QT prolongation”.

Source of the values: publication PMC4969713 (Journal of Alzheimer's Disease, 2016).
